Reference: the supplement of paper PMC12889115
The other results are listed elsewhere or left out. Values are raw readings; no control value is given beside them.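 In the initial screen, polymyxin B was used at a concentration that permeabilizes Salmonella's outer membrane but not its inner membrane. Maximum growth was set by DMSO wells with or without polymyxin B. Since plates varied, data were ranked per plate, and compounds giving the lowest OD600 advanced as hits.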

Test system: Salmonella enterica serovar Typhimurium SL1344
Assay: bacterial growth OD600 after 18 h with compound and polymyxin B; higher = more bacterial growth (less inhibition)
Details: 50 µM, Mueller-Hinton broth

Row | Structure (SMILES) | bacterial growth OD600 (polymyxin B 1 µg/mL) | bacterial growth OD600 (polymyxin B 0.75 µg/mL)
1 | O=C(c1csc2nc(-c3ccc(C(F)(F)F)cc3)cn12)N1CCSCC1 | 0.007 | 
2 | COc1cccc(CN2CCC(C(Cc3ccccc3Cl)N(C)C(=O)c3ccco3)CC2)c1O (stereo not given) |  | 0.575
3 | CCc1n[nH]c(C(=O)N2CCCC(CNS(=O)(=O)c3ccc(OC)cc3)C2)c1C (stereo not given) | 0.883 | 
4 | Cc1ccc2c(c1)CN(Cc1cccc(OCCO)c1)CC(c1ccsc1)O2 (stereo not given) |  | 0.084
5 | O=C(c1csc2nc(-c3ccc(C(F)(F)F)cc3)cn12)N1CCCC(CO)C1 (stereo not given) | 0.807 | 
6 | Cn1cc(CN2CCC(Oc3ccc(C(=O)NC4CCCC4)cc3Cl)CC2)cn1 | 1.12 | 
7 | COc1ccc2c(c1)SC(c1ccc(F)c(F)c1)CCN2CCCC(F)(F)F (stereo not given) |  | 0
8 | Cc1cccc(C(=O)N2CCCC2C(=O)Nc2ccc(-n3ccnc3C)cc2)n1 (stereo not given) |  | 0.858
9 | COc1cc(C)ccc1OCc1nc(C(=O)N(C)Cc2ccc(C)o2)co1 | 0.948 | 
10 | CN(C(=O)c1cc(NS(C)(=O)=O)cc2ncn(CCc3ccccc3)c12)C(C1CC1)C1CC1 |  | 0.001
11 | O=C(NC1CCCN(CCc2ccccc2)C1)c1ccncc1 (stereo not given) |  | 0.804
12 | CN(Cc1nc2ccccc2[nH]1)C(=O)c1cc(NC(=O)C2CCCO2)c2c(c1)nc(C1CCC1)n2C (stereo not given) |  | 0.823
13 | COCCN1CCN(C(=O)CC2C(=O)NCCN2Cc2cccc3ccccc23)CC1 (stereo not given) | 1.04 | 
14 | Cc1ccnn1CCC(=O)N1CCOC(CCc2ccccc2)C1 (stereo not given) |  | 0.82
15 | CCOc1ccc2nc(N3CCCN(Cc4ccc(OC)c(OC)c4OC)CC3)nc(C)c2c1 |  | 0.967
16 | Cc1cccnc1CCNC(=O)Cn1nnnc1CN1C[C@@H](C)O[C@@H](C)C1 |  | 0.835
17 | COCCn1c(CN2CCC(C)CC2)cnc1S(=O)(=O)C1CCCCCC1 | 1.11 | 
18 | CCOC(=O)C1(Cc2cccc(F)c2)CCN(Cc2cc(C)n[nH]2)CC1 | 0.835 | 
19 | CCN(CC1CCCO1)C(=O)c1cc(NC(=O)COC)cc2ncn(Cc3ccc(F)cc3)c12 (stereo not given) |  | 0.894
20 | Cc1ccc(CNC(=O)C2CCCN(c3nc(C)c4ccc(S(C)(=O)=O)cc4n3)C2)cc1 (stereo not given) |  | 0.908

Quoted from the listing:
In bacterial growth OD600 (polymyxin B 0.75 µg/mL), CCN(CC1CCCO1)C(=O)c1cc(NC(=O)COC)cc2ncn(Cc3ccc(F)cc3)c12 (stereo not given) is entered as 0.894
In bacterial growth OD600 (polymyxin B 0.75 µg/mL), COc1cccc(CN2CCC(C(Cc3ccccc3Cl)N(C)C(=O)c3ccco3)CC2)c1O (stereo not given) is entered as 0.575
